In patent US20200078441A1 one finds binding data, which are given here for four molecules.

The chains behind the UniProt entries cited, without tags or fusion partners. Where a name states a change or a piece, a line headed by the entry shows the natural chain unless it says otherwise. A line that says so, or that is headed by a name, gives the form on record, which may keep a tag or linker.
recombinant His-tagged AGO2 protein (human Argonaute 2, baculovirus-expressed) (Q9UKV8, form named): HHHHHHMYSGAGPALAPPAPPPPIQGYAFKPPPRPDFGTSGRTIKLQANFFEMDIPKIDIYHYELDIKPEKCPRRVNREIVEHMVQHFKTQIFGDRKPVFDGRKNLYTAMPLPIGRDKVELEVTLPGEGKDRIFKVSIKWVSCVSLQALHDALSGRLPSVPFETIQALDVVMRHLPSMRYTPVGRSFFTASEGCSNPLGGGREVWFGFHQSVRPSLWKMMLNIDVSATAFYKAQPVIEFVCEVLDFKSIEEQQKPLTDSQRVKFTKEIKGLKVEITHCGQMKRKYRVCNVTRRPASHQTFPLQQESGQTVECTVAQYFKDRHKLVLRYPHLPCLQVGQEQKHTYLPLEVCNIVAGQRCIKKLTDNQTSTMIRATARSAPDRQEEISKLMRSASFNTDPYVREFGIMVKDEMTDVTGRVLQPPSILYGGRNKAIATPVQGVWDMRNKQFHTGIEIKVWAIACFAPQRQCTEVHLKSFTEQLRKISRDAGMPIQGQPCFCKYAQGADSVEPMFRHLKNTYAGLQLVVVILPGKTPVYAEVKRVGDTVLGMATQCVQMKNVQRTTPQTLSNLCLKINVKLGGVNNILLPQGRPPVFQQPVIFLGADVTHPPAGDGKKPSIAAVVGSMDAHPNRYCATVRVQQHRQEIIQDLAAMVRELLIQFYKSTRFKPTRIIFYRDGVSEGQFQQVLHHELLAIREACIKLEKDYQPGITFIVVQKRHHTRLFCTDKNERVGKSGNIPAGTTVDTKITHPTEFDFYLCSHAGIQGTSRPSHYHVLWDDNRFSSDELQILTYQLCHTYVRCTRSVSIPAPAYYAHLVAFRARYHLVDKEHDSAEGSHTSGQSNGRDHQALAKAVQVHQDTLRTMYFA

B1: PepSpot array peptide 26 of the MSI1 C-terminus (…) (peptide)
peptide: HSLGGPLIATAFTNG
B2: PepSpot array peptide 11 of the MSI1 C-terminus (…) (peptide)
peptide: YQFPEFRVERTPLPS
B3: PepSpot array peptide 18 (peptide)
peptide: PWTMAPPPGSTPSRT
B4: PepSpot array peptide 10 (peptide)
peptide: GLAPGYTYQFPEFRV

Results are given in words; binding and its absence hold for the method and conditions named. Some entries that bind do so weakly or less than the wild type.

The target of one experiment is recombinant His-tagged AGO2 protein (human Argonaute 2, baculovirus-expressed) (human) (UniProt Q9UKV8). Kind of experiment: PepSpot peptide array on nitrocellulose probed with His-AGO2, anti-His HRP.
B1: the binding result is given as “binds”. The same measure, in the same setting: the entry for B2 is “binds”.

A further experiment has the same target. Nature of the experiment: PepSpot peptide array of 27 MSI1 C-terminal peptides incubated with recombinant His-tagged AGO2 (2 µg), detected with anti-His-HRP.
With B3, the binding result is “binds”. The same measure, in the same setting: next, B4: “binds”; B1: “binds”.

B2: the binding entry is given as “binds”.
